Source: PubChem BioAssay AID504744 (Drosophila RNAi Screening Center, 2011)

Aim: 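Uncover factors, including feedback loops, that control dAkt activation in fly cells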 (primary screen)
System: Drosophila Kc167 cells
Reagents: long dsRNA against Drosophila genes, 250 ng dsRNA per well of a 384-well plate
Timing: 3 days of knock-down, then overnight serum-free starvation before stimulation
Challenge: bovine insulin at 387 nM for 10 minutes after 12 h without serum
Detection: 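Per-well phospho-dAkt level from an in-cell fluorescent antibody stain, divided by a DNA-dye signal; log2 residuals turned into z-scores that take cell number into account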
Active means: 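Hit in the insulin screen when the two-replicate mean z-score is more extreme than plus or minus 2.5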
The deposit covers about 23,000 reagents; shown is an unselected part of those that have a named target and a result. Of all reagents, 98 (0.43%) are marked active. 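Only hit calls are given; the phospho-dAkt signals, z-scores and hit direction were not deposited.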 A plus sign joins genes that one reagent is predicted to hit.

Gr22e (GeneID 117498) [DRSC20912]: Call = inactive
Diap2 (GeneID 36748) [DRSC07444]: Call = inactive
BCAS2 (GeneID 43348) [DRSC15693]: Call = inactive
CG12384 (GeneID 36224) [DRSC06145]: Call = inactive
Dnai2 (GeneID 39318) [DRSC10575]: Call = inactive
CG11563 (GeneID 43735) [DRSC14327]: Call = inactive
Acp62F (GeneID 38340) [DRSC08136]: Call = inactive
CG32507 (GeneID 318060) [DRSC20421]: Call = inactive
CG17343 (GeneID 35180) [DRSC02606]: Call = inactive
CG17343 (GeneID 35180) [DRSC22807]: Call = inactive
Cbp20 (GeneID 42166) [DRSC16601]: Call = inactive
CG14352 (GeneID 33341) [DRSC00382]: Call = inactive
CG31601 (GeneID 318835) [DRSC03678]: Call = inactive
nord (GeneID 37882) [DRSC04210]: Call = inactive
nord (GeneID 37882) [DRSC04361]: Call = inactive
lqf (GeneID 38846) [DRSC11363]: Call = inactive
Mzt1 (GeneID 10178948) [DRSC07979]: Call = inactive
CG13008 (GeneID 32654) [DRSC19527]: Call = inactive
CG13008 (GeneID 32654) [DRSC19528]: Call = inactive
cyp33 + CG34194 [DRSC05666]: Call = inactive
Gr28b (GeneID 117496) [DRSC02291]: Call = inactive
Gr28b (GeneID 117496) [DRSC02292]: Call = inactive

Individual results from the entries so far:
Under “Call”, CG17343 (GeneID 35180) [DRSC22807] is entered as inactive
CG13008 (GeneID 32654) [DRSC19528], Call: inactive
Entry for CG11563 (GeneID 43735) [DRSC14327] in “Call”: inactive
Under “Call”, CG14352 (GeneID 33341) [DRSC00382] is entered as inactive

Continued:
glob3 (GeneID 40726) [DRSC12261]: Call = inactive
tef (GeneID 36920) [DRSC07301]: Call = inactive
tef (GeneID 36920) [DRSC22041]: Call = inactive
nudC (GeneID 39879) [DRSC11096]: Call = inactive
nudC (GeneID 39879) [DRSC11097]: Call = inactive
Gapvd1 (GeneID 32070) [DRSC19752]: Call = inactive
CG11112 (GeneID 35658) [DRSC06038]: Call = inactive
Noa36 (GeneID 43384) [DRSC16761]: Call = inactive
CG6154 (GeneID 43184) [DRSC15977]: Call = inactive
CG9630 (GeneID 40974) [DRSC16527]: Call = inactive
ND-B14.5B (GeneID 33528) [DRSC00346]: Call = inactive
Kaz1-ORFB + Kaz1-ORFA [DRSC08669]: Call = inactive
bin (GeneID 38766) [DRSC10332]: Call = inactive
mRpS14 (GeneID 117414) [DRSC19444]: Call = inactive
CG42540 (GeneID 38562) [DRSC08327]: Call = inactive
CG42540 (GeneID 38562) [DRSC08328]: Call = inactive
CG42540 (GeneID 38562) [DRSC08593]: Call = inactive
